From PMC5325215 come the findings set out here.

No constants are given. Whether binding was seen depends on the method and setting. In cells and extracts the contact can be indirect. Binding can be weak; no strength is given. Where a sequence is shown, tags or fusion partners need not be part of it.

The target of the assay is T1, FILIP d248-442 (3 x FLAG tagged) (rat) (UniProt Q8K4T4).
T1 sequence: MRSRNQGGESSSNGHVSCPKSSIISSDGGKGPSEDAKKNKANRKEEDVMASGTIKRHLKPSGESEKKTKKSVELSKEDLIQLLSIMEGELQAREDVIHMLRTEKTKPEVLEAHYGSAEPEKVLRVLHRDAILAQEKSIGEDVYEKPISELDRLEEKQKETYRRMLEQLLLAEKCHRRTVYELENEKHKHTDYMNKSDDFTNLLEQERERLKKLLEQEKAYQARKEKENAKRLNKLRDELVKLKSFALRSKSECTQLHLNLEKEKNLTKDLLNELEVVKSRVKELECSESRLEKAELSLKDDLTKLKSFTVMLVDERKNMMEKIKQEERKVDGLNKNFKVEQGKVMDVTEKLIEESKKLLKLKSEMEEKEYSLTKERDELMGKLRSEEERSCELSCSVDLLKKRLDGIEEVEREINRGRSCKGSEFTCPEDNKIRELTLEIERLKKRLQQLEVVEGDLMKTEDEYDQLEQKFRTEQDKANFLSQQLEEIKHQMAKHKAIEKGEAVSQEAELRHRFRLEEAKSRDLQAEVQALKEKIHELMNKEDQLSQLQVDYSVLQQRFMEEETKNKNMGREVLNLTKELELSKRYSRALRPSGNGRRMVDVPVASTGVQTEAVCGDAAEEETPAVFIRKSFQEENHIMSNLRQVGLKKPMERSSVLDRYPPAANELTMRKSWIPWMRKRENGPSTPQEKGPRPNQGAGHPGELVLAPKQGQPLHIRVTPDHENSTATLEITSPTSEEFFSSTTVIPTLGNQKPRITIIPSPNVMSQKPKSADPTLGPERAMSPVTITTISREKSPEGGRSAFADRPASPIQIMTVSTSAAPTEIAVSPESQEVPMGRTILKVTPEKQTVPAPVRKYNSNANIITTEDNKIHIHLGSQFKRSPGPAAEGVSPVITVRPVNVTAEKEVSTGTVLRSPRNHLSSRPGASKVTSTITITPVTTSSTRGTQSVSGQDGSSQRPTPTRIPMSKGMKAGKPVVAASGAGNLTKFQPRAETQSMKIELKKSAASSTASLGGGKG
The assay is described as follows: co-IP; COS-7 cells transfected with FLAG-tagged FILIP or deletion mutants; immunoprecipitation with anti-FLAG M2 on Protein G Dynabeads, 4°C, 3 hours; blots with anti-Hsc70 or anti-NMHCIIb; in Fig 4E also with expression of Hsc70 or Hsc70 K71M.

As to “non-muscle myosin IIb (endogenous, COS-7 cells)”, the binding result is given as “binds”.
